Assay results published in patent publication US11912777.
These are yes or no findings as the source states them, for the method shown. Binding can be weak; no strength is given.

Columns and labels:
TNFR2 [1] = assay: ELISA on coated TNFR2, positive control of the TNFR superfamily cross-binding test; lower panel
TNFR2 [2] = assay: ELISA on coated TNFR2, positive control of the TNFR superfamily cross-binding test; upper panel

binding (TNFR2 [1])	binding (TNFR2 [2])	Binder
binds	–	humanized antibody hu3-E (Hu3-H3/Hu3-L1) (antibody, human IgG1, kappa, V domains shown) VH: QIQLVQSGAEVKKPGASVKVSCKASGYTFTTYGMSWVRQAPGQGLEWMGWIHTYSGVPTYADDFKGRFAFTLDTSTSTAYMELRSLRSDDTAVYYCARGLYGVDYWGQGTLVTVSS VL: EIVMTQSPATLSLSPGERATLSCKASENVVTYVSWYQQKPGQAPRLLIYGASNRYTGIPARFSGSGSATDFTLTISSLQPEDFAVYYCGQSYTYPYTFGQGTKLEIKR
–	binds	humanized antibody hu32-C (Hu32-H1/Hu32-L3) (antibody, human IgG1, kappa, V domains shown) VH: QVTLKESGPTLVKPTQTLTLTCTFSGFSLSTLGMGVGWIRQPPGKALEWLAHIWWDADKYYNPALKSRLTITKDTSKNQVVLTMTNMDPVDTATYYCARMTGTRYFDVWGQGTTVTVSS VL: DIQMTQSPSSLSASVGDRVTITCKASQNINKFIAWYQQKPGKVPKLLIHYTSTLQPGVPSRFSGSGSGSDYTLTISSLQPEDVATYYCLQYGVLWTFGGGTKVEIKR
